{"source": "PubChem BioAssay AID720505 (Drosophila RNAi Screening Center, 2013)", "assay": "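Genes needed for store-operated calcium entry in fly cells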 (primary screen)", "cell system": "Drosophila S2R+ cells", "reagents": "long dsRNA against Drosophila genes", "challenge": "thapsigargin (2 µM) in calcium-free buffer to empty internal stores, then 2 mM calcium added back", "detection": "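Stores emptied by 2 µM thapsigargin without calcium, then 2 mM calcium re-added; fluo-4 fluorescence followed by FLIPR in 384-well plates, per-well averaged endpoint, raw; two screen passes, some wells retested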", "direction": "calcium signal: higher = more calcium entry after store depletion", "active means": "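Knock-downs counted as hits when calcium entry dropped relative to STIM1 positive and Rho1 negative controls present on each plate; roughly 1500 genes called, with reductions of differing size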", "calls": "active = called as lowering calcium entry; inactive = not called", "note": "In all, the deposit lists about 20,000 reagents; below is a random part of those with a known target gene and a result. In the full data, about 2,100 (10%) are marked active. 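Raw plate signals without normalisation; calls rest on control-based scores that were not deposited; replicate 2 separates called from uncalled poorly.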 A number with no mark means an inactive call. A plus sign joins genes that one reagent is predicted to hit. Reagent sequences are not shown. The record does not give: the amount of reagent, the time to read-out."}
{"Gene":"boil (GeneID 31416)","amplicon":"DRSC17872","calcium signal, replicate 1":263,"calcium signal, replicate 2":84.8}
{"Gene":"CG15408 (GeneID 33548)","amplicon":"DRSC00423","calcium signal, replicate 1":85.1,"calcium signal, replicate 2":106}
{"Gene":"CG31626 + CG8677","amplicon":"DRSC21844","calcium signal, replicate 1":"57.7 (active)","calcium signal, replicate 2":101}
{"Gene":"Mur89F (GeneID 42080)","amplicon":"DRSC15544","calcium signal, replicate 1":131,"calcium signal, replicate 2":123}
{"Gene":"BCAS2 (GeneID 43348)","amplicon":"DRSC15693","calcium signal, replicate 1":106,"calcium signal, replicate 2":112}
{"Gene":"CG42747 (GeneID 38732)","amplicon":"DRSC10209","calcium signal, replicate 1":84.7,"calcium signal, replicate 2":84.7}
{"Gene":"CG42747 (GeneID 38732)","amplicon":"DRSC10210","calcium signal, replicate 1":90.1,"calcium signal, replicate 2":58.4}
{"Gene":"CR42545 (GeneID 8674105)","amplicon":"DRSC03709","calcium signal, replicate 1":111,"calcium signal, replicate 2":84.6}
{"Gene":"NdufV3 (GeneID 32076)","amplicon":"DRSC19423","calcium signal, replicate 1":99,"calcium signal, replicate 2":91.9}
{"Gene":"CG8642 (GeneID 35845)","amplicon":"DRSC07228","calcium signal, replicate 1":122,"calcium signal, replicate 2":149}
{"Gene":"CG12477 (GeneID 40040)","amplicon":"DRSC09886","calcium signal, replicate 1":99.4,"calcium signal, replicate 2":173}
{"Gene":"Rab7 (GeneID 42841)","amplicon":"DRSC16810","calcium signal, replicate 1":141,"calcium signal, replicate 2":152}
{"Gene":"CG42502 + CG10570","amplicon":"DRSC02071","calcium signal, replicate 1":77.1,"calcium signal, replicate 2":83.7}
{"Gene":"CG13063 (GeneID 39797)","amplicon":"DRSC09946","calcium signal, replicate 1":112,"calcium signal, replicate 2":123}
{"Gene":"Fur2 (GeneID 32604)","amplicon":"DRSC19817","calcium signal, replicate 1":116,"calcium signal, replicate 2":135}
{"Gene":"CG12259 (GeneID 43347)","amplicon":"DRSC14486","calcium signal, replicate 1":116,"calcium signal, replicate 2":120}
{"Gene":"CG12259 (GeneID 43347)","amplicon":"DRSC23281","calcium signal, replicate 1":98.2,"calcium signal, replicate 2":148}
{"Gene":"CG6686 (GeneID 34608)","amplicon":"DRSC02979","calcium signal, replicate 1":88.8,"calcium signal, replicate 2":83.7}
{"Gene":"CG18048 (GeneID 40782)","amplicon":"DRSC12573","calcium signal, replicate 1":123,"calcium signal, replicate 2":122}
{"Gene":"CG6290 (GeneID 32827)","amplicon":"DRSC19979","calcium signal, replicate 1":130,"calcium signal, replicate 2":129}
{"Gene":"Hil (GeneID 37328)","amplicon":"DRSC05989","calcium signal, replicate 1":129,"calcium signal, replicate 2":90.5}
{"Gene":"Hil (GeneID 37328)","amplicon":"DRSC06395","calcium signal, replicate 1":66.4,"calcium signal, replicate 2":108}
{"Gene":"CG11095 (GeneID 32348)","amplicon":"DRSC19375","calcium signal, replicate 1":87.6,"calcium signal, replicate 2":80.4}
{"Gene":"128up (GeneID 36288)","amplicon":"DRSC05027","calcium signal, replicate 1":165,"calcium signal, replicate 2":148}
{"Gene":"CG12171 (GeneID 40690)","amplicon":"DRSC12200","calcium signal, replicate 1":132,"calcium signal, replicate 2":165}
{"Gene":"CG1889 (GeneID 31928)","amplicon":"DRSC18195","calcium signal, replicate 1":103,"calcium signal, replicate 2":119}
{"Gene":"Hr3 (GeneID 36073)","amplicon":"DRSC06118","calcium signal, replicate 1":130,"calcium signal, replicate 2":164}
{"Gene":"Hr3 (GeneID 36073)","amplicon":"DRSC07441","calcium signal, replicate 1":130,"calcium signal, replicate 2":193}

Targets listed so far whose gene name starts with H or h (4):
{"Gene":"Hil (GeneID 37328)","amplicon":"DRSC05989","calcium signal, replicate 1":129,"calcium signal, replicate 2":90.5}
{"Gene":"Hil (GeneID 37328)","amplicon":"DRSC06395","calcium signal, replicate 1":66.4,"calcium signal, replicate 2":108}
{"Gene":"Hr3 (GeneID 36073)","amplicon":"DRSC06118","calcium signal, replicate 1":130,"calcium signal, replicate 2":164}
{"Gene":"Hr3 (GeneID 36073)","amplicon":"DRSC07441","calcium signal, replicate 1":130,"calcium signal, replicate 2":193}
